From US20260191962A1, “NOVEL CHLORIN E6 ANALOGUES” (RMW CHO Group Limited, priority 2022, published 2026)

Test system: SKOV3 ovarian cancer cells
Test: Phototoxicity of chlorin e6 analogues in SKOV3 cells after 652 nm laser activation (AlamarBlue viability)
Type: cell-based, Human
Settings: calculated using phototoxicity IC90 vs dark toxicity IC10, SKOV3 cells
Protocol: Samples were stored at 4° C. protected from light.
All data are shown as mean±SD (where appropriate).
To test for phototoxicity, cells incubated with chlorin e6 analogues (0-10 μM in DMSO) had culture media replaced after 24 hours (as above) and were then exposed to a 652 nm laser (Invion) with laser density at 50 mW/cm^2 for 5 mins (total 15 J/cm^2). Following activation, cells were cultured for a further 24 hours. Media was then replaced with fresh media containing AlamarBlue, and % viable cells remaining assessed as above. Controls included cells treated with chlorin e6 analogues but not activated by laser light; cells without chlorin e6 analogue treatment but with laser light; and untreated controls. All measurements were made in quadruplicate.
To evaluate the therapeutic potential of chlorin e6 analogues, the therapeutic index (TI) was calculated. TI provides a quantitative measurement to describe relative drug safety, by comparing the drug concentration required for desirable effects versus the concentration resulting in undesirable off-target toxicity. TI was calculated using phototoxicity IC90 vs dark toxicity IC10.

SMILES | Therapeutic Index
C=Cc1c(C)c2cc3nc(c(CC(=O)O)c4[nH]c(cc5nc(cc1[nH]2)C(C)=C5CC)c(C)c4C(=O)NCCCS[C@@H]1O[C@H](CO)[C@@H](O)[C@H](O)[C@H]1O)[C@@H](CCC(=O)NCCCS[C@@H]1O[C@H](CO)[C@@H](O)[C@H](O)[C@H]1O)[C@@H]3C [Compound 1, chlorin e6 bis β-D-1-thioglucose propylamide conjugate 1] | 25.94
C=Cc1c(C)c2cc3nc(c(CC(=O)NCCCS[C@@H]4O[C@H](CO)[C@@H](O)[C@H](O)[C@H]4O)c4[nH]c(cc5nc(cc1[nH]2)C(C)=C5CC)c(C)c4C(=O)NCCCS[C@@H]1O[C@H](CO)[C@@H](O)[C@H](O)[C@H]1O)[C@@H](CCC(=O)NCCCS[C@@H]1O[C@H](CO)[C@@H](O)[C@H](O)[C@H]1O)[C@@H]3C [Compound 2, chlorin e6 tris β-D-1-thioglucose propylamide conjugate 2] | 21.22
C=Cc1c(C)c2cc3nc(c(CC(=O)N(C)CCC[P+](c4ccccc4)(c4ccccc4)c4ccccc4)c4[nH]c(cc5nc(cc1[nH]2)C(C)=C5CC)c(C)c4C(=O)OC)[C@@H](CCC(=O)OC)[C@@H]3C [Compound 8, Chlorin e6 N-(methylaminopropyl)triphenylphosphonium Bromide Dimethyl Ester] | 246.89
